Results deposited as PubChem BioAssay AID1259405 (NCATS, 2018).
Shown is a random part of about 50,000 reagents. About 4,000 of all reagents (8%) count as active. 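Mouse siRNA library applied to hamster cells; one well for each siRNA.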

- Test: 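Knock-downs that lift recombinant protein yield in hamster ovary cells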 (primary screen)
- Cells: Chinese hamster CHO-K1 ovary cells with stable secreted eGFP expression
- Reagent: single siRNA against mouse genes, 0.8 pmol siRNA per well (2 µl of 400 nM stock)
- Timing: 3 days
- Detection: 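Percent of the per-plate non-targeting control median for intracellular GFP per well by laser scanning cytometry and for cell viability by ATP luminescence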
- Direction: GFP, % of control: higher = more GFP per well, higher productivity; viability (ATP), % of control: higher = more viable cells (more ATP)
- Call rule: 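a knock-down is called active if GFP reaches 120% or more of non-targeting control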

{"target gene": "Ofcc1 (orofacial cleft 1 candidate 1)", "PubChem SID": "SID363562150", "GFP, % of control": 74.2, "viability (ATP), % of control": 48.2, "activity call": "inactive"}
{"target gene": "Ofcc1 (orofacial cleft 1 candidate 1)", "PubChem SID": "SID363567288", "GFP, % of control": 82.2, "viability (ATP), % of control": 90.8, "activity call": "inactive"}
{"target gene": "Ofcc1 (orofacial cleft 1 candidate 1)", "PubChem SID": "SID363584645", "GFP, % of control": 98.9, "viability (ATP), % of control": 69.6, "activity call": "inactive"}
{"target gene": "Il2 (interleukin 2)", "PubChem SID": "SID363582453", "GFP, % of control": 89.4, "viability (ATP), % of control": 95.3, "activity call": "inactive"}
{"target gene": "Il2 (interleukin 2)", "PubChem SID": "SID363584213", "GFP, % of control": 79.8, "viability (ATP), % of control": 74.5, "activity call": "inactive"}
{"target gene": "Gps1 (G protein pathway suppressor 1)", "PubChem SID": "SID363540090", "GFP, % of control": 48.2, "viability (ATP), % of control": 70.5, "activity call": "inactive"}
{"target gene": "Gps1 (G protein pathway suppressor 1)", "PubChem SID": "SID363561391", "GFP, % of control": 76.3, "viability (ATP), % of control": 81.1, "activity call": "inactive"}
{"target gene": "Gps1 (G protein pathway suppressor 1)", "PubChem SID": "SID363564427", "GFP, % of control": 124, "viability (ATP), % of control": 72.8, "activity call": "active"}
{"target gene": "Nmnat3 (nicotinamide nucleotide adenylyltransferase 3)", "PubChem SID": "SID363570601", "GFP, % of control": 102, "viability (ATP), % of control": 105, "activity call": "inactive"}
{"target gene": "Nmnat3 (nicotinamide nucleotide adenylyltransferase 3)", "PubChem SID": "SID363579401", "GFP, % of control": 101, "viability (ATP), % of control": 81, "activity call": "inactive"}
{"target gene": "Nmnat3 (nicotinamide nucleotide adenylyltransferase 3)", "PubChem SID": "SID363583273", "GFP, % of control": 88.2, "viability (ATP), % of control": 104, "activity call": "inactive"}
{"target gene": "Leng9 (leukocyte receptor cluster (LRC) member 9)", "PubChem SID": "SID363547729", "GFP, % of control": 40.1, "viability (ATP), % of control": 28.2, "activity call": "inactive"}
{"target gene": "Leng9 (leukocyte receptor cluster (LRC) member 9)", "PubChem SID": "SID363558498", "GFP, % of control": 81.8, "viability (ATP), % of control": 83.8, "activity call": "inactive"}
{"target gene": "Leng9 (leukocyte receptor cluster (LRC) member 9)", "PubChem SID": "SID363560256", "GFP, % of control": 72.4, "viability (ATP), % of control": 80.5, "activity call": "inactive"}
{"target gene": "Trim30b (tripartite motif-containing 30B)", "PubChem SID": "SID363542813", "GFP, % of control": 78.7, "viability (ATP), % of control": 70.7, "activity call": "inactive"}
{"target gene": "Trim30b (tripartite motif-containing 30B)", "PubChem SID": "SID363546330", "GFP, % of control": 48.2, "viability (ATP), % of control": 31, "activity call": "inactive"}
{"target gene": "Trim30b (tripartite motif-containing 30B)", "PubChem SID": "SID363548086", "GFP, % of control": 95.7, "viability (ATP), % of control": 90.2, "activity call": "inactive"}
{"target gene": "Lsm7", "PubChem SID": "SID363569331", "GFP, % of control": 133, "viability (ATP), % of control": 88.8, "activity call": "active"}
{"target gene": "Lsm7", "PubChem SID": "SID363577075", "GFP, % of control": 49.1, "viability (ATP), % of control": 52.2, "activity call": "inactive"}
{"target gene": "Lsm7", "PubChem SID": "SID363578483", "GFP, % of control": 81.3, "viability (ATP), % of control": 80.2, "activity call": "inactive"}
{"target gene": "Sdf2 (stromal cell derived factor 2)", "PubChem SID": "SID363545228", "GFP, % of control": 241, "viability (ATP), % of control": 173, "activity call": "active"}
{"target gene": "Sdf2 (stromal cell derived factor 2)", "PubChem SID": "SID363548741", "GFP, % of control": 89.6, "viability (ATP), % of control": 62.9, "activity call": "inactive"}
{"target gene": "Sdf2 (stromal cell derived factor 2)", "PubChem SID": "SID363562547", "GFP, % of control": 56.8, "viability (ATP), % of control": 48.7, "activity call": "inactive"}
{"target gene": "Or2l5 (olfactory receptor family 2 subfamily L member 5)", "PubChem SID": "SID363544423", "GFP, % of control": 81.9, "viability (ATP), % of control": 85.6, "activity call": "inactive"}
{"target gene": "Or2l5 (olfactory receptor family 2 subfamily L member 5)", "PubChem SID": "SID363550751", "GFP, % of control": 71.9, "viability (ATP), % of control": 76.6, "activity call": "inactive"}
{"target gene": "Or2l5 (olfactory receptor family 2 subfamily L member 5)", "PubChem SID": "SID363557300", "GFP, % of control": 109, "viability (ATP), % of control": 44.9, "activity call": "inactive"}

The list goes on; the last 5 above are carried over.
{"target gene": "Sdf2 (stromal cell derived factor 2)", "PubChem SID": "SID363548741", "GFP, % of control": 89.6, "viability (ATP), % of control": 62.9, "activity call": "inactive"}
{"target gene": "Sdf2 (stromal cell derived factor 2)", "PubChem SID": "SID363562547", "GFP, % of control": 56.8, "viability (ATP), % of control": 48.7, "activity call": "inactive"}
{"target gene": "Or2l5 (olfactory receptor family 2 subfamily L member 5)", "PubChem SID": "SID363544423", "GFP, % of control": 81.9, "viability (ATP), % of control": 85.6, "activity call": "inactive"}
{"target gene": "Or2l5 (olfactory receptor family 2 subfamily L member 5)", "PubChem SID": "SID363550751", "GFP, % of control": 71.9, "viability (ATP), % of control": 76.6, "activity call": "inactive"}
{"target gene": "Or2l5 (olfactory receptor family 2 subfamily L member 5)", "PubChem SID": "SID363557300", "GFP, % of control": 109, "viability (ATP), % of control": 44.9, "activity call": "inactive"}
{"target gene": "Zfp157 (zinc finger protein 157)", "PubChem SID": "SID363573179", "GFP, % of control": 68.3, "viability (ATP), % of control": 61.8, "activity call": "inactive"}
{"target gene": "Zfp157 (zinc finger protein 157)", "PubChem SID": "SID363588418", "GFP, % of control": 84.8, "viability (ATP), % of control": 80.2, "activity call": "inactive"}
{"target gene": "Tedc2 (tubulin epsilon and delta complex 2)", "PubChem SID": "SID363540722", "GFP, % of control": 100, "viability (ATP), % of control": 58.9, "activity call": "inactive"}
{"target gene": "Tedc2 (tubulin epsilon and delta complex 2)", "PubChem SID": "SID363543173", "GFP, % of control": 134, "viability (ATP), % of control": 101, "activity call": "active"}
{"target gene": "Tedc2 (tubulin epsilon and delta complex 2)", "PubChem SID": "SID363552666", "GFP, % of control": 142, "viability (ATP), % of control": 98.2, "activity call": "active"}
{"target gene": "Pgf (placental growth factor)", "PubChem SID": "SID363541813", "GFP, % of control": 74.8, "viability (ATP), % of control": 79.3, "activity call": "inactive"}
{"target gene": "Pgf (placental growth factor)", "PubChem SID": "SID363553405", "GFP, % of control": 82.5, "viability (ATP), % of control": 83.2, "activity call": "inactive"}
{"target gene": "Pgf (placental growth factor)", "PubChem SID": "SID363566729", "GFP, % of control": 53.3, "viability (ATP), % of control": 67.9, "activity call": "inactive"}
{"target gene": "Fancl (Fanconi anemia, complementation group L)", "PubChem SID": "SID363539954", "GFP, % of control": 65.4, "viability (ATP), % of control": 78.4, "activity call": "inactive"}
{"target gene": "Fancl (Fanconi anemia, complementation group L)", "PubChem SID": "SID363561255", "GFP, % of control": 105, "viability (ATP), % of control": 90, "activity call": "inactive"}
{"target gene": "Fancl (Fanconi anemia, complementation group L)", "PubChem SID": "SID363564291", "GFP, % of control": 62.6, "viability (ATP), % of control": 67.6, "activity call": "inactive"}
{"target gene": "Zfp345 (zinc finger protein 345)", "PubChem SID": "SID363541113", "GFP, % of control": 64.4, "viability (ATP), % of control": 84.9, "activity call": "inactive"}
{"target gene": "Zfp345 (zinc finger protein 345)", "PubChem SID": "SID363555740", "GFP, % of control": 70, "viability (ATP), % of control": 89.9, "activity call": "inactive"}
{"target gene": "Zfp345 (zinc finger protein 345)", "PubChem SID": "SID363566029", "GFP, % of control": 62.7, "viability (ATP), % of control": 66.5, "activity call": "inactive"}
